According to US20250347705:
Weaker means in comparison with the reference protein, sequence or condition of that experiment.

Chains of the proteins cited; added tags and fusions are not shown. Chains listed by the source or under a name are the forms on record and can include a tag or linker.
human chorionic gonadotropin (hCG), alpha/beta heterodimer (Homo sapiens), one chain, as listed by the source, chain 1 of 2: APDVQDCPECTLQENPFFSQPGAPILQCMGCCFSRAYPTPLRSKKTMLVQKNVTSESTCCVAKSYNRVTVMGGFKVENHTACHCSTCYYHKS

Test system: human chorionic gonadotropin (hCG), alpha/beta heterodimer (Homo sapiens)
Assay: EMSA
Details: potential but not strong binding; artificial urine, room temp; ELONA significant vs BSA beads (p=0.001); purified native protein; label: 5' biotin; single-stranded DNA; variant of R5_4 full-length

Question: Does “CAAGGATCGGCTCAACTTAATATTGGAGGGATAGTGTTGG [R5_4 truncated]” bind?
Answer: binds more weakly
